According to the supplement of paper PMC10849652:
The other results are listed elsewhere or left out.

Sequences of proteins named here, by UniProt entry; tags and fusion partners are left off. A change or cut given only in a name is not applied to a line headed by its entry.
UniProt Q86VP1, whole entry, looked up: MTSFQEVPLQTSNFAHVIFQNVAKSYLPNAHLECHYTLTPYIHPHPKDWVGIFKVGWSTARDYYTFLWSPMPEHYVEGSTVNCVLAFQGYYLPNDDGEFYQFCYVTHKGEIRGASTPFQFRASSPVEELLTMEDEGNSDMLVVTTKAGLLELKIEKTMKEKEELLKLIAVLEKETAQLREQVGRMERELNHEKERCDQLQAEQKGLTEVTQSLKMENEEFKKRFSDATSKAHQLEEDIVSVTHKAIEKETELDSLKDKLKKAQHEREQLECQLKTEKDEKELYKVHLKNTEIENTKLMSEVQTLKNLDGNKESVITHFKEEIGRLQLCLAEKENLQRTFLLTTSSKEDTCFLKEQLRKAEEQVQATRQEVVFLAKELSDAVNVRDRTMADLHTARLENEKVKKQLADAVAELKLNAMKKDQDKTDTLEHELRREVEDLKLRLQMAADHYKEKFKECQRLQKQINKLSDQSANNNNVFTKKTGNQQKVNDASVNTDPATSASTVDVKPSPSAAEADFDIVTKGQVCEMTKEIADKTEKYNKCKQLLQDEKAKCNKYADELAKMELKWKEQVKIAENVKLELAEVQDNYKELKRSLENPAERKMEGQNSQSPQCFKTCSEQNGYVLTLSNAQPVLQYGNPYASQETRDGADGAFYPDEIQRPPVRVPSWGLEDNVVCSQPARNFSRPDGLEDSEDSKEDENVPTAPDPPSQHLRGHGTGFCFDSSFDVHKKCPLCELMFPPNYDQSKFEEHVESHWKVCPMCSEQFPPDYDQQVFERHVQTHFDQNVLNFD
UniProt Q96BS2: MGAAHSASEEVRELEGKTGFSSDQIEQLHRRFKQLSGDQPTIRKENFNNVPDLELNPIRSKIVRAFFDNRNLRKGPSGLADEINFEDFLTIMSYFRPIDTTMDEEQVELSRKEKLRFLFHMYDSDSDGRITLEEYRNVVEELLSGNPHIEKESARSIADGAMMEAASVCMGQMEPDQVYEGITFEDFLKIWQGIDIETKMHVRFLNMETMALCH
UniProt A7MCY6, whole entry, looked up: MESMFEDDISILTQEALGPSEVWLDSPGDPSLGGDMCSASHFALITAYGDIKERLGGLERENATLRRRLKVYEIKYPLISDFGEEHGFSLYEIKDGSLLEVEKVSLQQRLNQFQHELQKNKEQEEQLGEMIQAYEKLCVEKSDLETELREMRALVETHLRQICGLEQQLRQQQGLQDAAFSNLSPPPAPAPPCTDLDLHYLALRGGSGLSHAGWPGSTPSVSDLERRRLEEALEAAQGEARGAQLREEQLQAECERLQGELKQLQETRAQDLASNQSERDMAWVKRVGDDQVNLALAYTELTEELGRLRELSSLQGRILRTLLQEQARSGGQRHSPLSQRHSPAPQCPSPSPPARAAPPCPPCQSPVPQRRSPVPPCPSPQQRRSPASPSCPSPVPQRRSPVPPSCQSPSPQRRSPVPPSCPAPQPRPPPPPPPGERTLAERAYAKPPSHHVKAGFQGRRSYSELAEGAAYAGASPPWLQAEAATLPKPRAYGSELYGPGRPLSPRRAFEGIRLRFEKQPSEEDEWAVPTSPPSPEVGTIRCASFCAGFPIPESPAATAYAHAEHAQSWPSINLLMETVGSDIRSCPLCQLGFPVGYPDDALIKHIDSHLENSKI
UniProt Q9NUW8, whole entry, looked up: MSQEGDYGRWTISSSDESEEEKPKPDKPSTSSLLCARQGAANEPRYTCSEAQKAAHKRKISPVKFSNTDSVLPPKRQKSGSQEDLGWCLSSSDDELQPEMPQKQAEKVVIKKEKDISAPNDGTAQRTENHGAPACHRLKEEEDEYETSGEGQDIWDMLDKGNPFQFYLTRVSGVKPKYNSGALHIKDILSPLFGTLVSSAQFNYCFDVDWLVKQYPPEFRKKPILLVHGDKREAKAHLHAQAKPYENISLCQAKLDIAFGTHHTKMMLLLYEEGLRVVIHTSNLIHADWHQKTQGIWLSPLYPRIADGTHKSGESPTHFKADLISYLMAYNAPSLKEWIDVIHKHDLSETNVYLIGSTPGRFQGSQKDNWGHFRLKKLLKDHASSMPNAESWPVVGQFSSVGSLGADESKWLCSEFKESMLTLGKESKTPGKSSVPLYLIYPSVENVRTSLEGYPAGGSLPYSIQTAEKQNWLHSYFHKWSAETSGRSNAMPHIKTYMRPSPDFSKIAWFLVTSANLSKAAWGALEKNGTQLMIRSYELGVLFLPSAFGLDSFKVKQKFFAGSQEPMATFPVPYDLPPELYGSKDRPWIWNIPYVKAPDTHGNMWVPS
UniProt P28347, whole entry, looked up: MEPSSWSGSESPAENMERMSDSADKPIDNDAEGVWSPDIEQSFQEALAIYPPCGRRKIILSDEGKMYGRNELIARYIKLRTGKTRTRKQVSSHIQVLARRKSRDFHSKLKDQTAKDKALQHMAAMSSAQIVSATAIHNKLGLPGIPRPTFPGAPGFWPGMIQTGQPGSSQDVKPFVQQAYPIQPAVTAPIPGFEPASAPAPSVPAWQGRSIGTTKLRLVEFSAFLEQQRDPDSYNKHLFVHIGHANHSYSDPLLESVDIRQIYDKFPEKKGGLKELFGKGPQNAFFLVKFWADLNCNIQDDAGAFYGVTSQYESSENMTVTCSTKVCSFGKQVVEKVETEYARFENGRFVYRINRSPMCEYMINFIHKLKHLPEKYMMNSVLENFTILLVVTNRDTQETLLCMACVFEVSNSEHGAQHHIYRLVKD
UniProt Q14188: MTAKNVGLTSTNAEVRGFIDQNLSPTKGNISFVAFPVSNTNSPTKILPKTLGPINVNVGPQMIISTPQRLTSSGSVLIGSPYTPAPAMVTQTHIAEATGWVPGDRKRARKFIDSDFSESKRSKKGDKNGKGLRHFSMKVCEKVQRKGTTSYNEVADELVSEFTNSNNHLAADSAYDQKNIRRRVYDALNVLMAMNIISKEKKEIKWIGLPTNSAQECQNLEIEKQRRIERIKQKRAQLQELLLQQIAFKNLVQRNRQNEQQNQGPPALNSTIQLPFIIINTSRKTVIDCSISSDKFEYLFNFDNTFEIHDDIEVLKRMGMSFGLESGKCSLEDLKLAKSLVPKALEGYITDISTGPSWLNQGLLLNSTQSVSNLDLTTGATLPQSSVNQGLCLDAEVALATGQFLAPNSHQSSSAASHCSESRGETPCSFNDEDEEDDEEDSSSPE
UniProt Q8NDF8: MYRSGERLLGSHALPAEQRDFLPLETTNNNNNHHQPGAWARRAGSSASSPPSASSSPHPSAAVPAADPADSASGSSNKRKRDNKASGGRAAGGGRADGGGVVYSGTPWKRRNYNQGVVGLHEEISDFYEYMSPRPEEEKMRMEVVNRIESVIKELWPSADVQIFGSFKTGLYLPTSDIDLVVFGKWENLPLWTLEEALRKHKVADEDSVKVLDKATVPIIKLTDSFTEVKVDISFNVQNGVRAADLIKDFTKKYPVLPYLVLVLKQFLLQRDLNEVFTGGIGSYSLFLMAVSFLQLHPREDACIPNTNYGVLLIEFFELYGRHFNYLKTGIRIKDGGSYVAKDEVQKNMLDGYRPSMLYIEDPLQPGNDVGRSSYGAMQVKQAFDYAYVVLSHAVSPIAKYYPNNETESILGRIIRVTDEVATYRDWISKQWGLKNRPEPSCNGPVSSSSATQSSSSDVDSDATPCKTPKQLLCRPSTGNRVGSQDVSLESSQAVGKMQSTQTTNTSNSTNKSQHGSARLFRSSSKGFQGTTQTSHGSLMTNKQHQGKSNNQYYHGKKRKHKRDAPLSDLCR
UniProt O75347: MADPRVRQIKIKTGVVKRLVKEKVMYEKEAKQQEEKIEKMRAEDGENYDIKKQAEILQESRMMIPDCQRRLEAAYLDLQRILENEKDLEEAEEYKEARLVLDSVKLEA
UniProt O15533, whole entry, looked up: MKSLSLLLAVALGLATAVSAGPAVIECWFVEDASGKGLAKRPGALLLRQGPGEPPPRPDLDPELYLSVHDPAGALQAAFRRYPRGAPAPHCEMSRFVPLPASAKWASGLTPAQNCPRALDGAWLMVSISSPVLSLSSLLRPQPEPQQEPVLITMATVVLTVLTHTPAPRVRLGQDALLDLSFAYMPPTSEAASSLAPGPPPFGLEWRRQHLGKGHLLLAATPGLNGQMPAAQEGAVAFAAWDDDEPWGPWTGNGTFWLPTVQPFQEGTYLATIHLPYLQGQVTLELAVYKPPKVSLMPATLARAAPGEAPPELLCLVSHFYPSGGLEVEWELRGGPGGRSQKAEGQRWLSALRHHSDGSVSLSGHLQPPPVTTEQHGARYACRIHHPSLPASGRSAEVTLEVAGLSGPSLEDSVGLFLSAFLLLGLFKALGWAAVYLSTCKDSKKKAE
UniProt Q6P1N9: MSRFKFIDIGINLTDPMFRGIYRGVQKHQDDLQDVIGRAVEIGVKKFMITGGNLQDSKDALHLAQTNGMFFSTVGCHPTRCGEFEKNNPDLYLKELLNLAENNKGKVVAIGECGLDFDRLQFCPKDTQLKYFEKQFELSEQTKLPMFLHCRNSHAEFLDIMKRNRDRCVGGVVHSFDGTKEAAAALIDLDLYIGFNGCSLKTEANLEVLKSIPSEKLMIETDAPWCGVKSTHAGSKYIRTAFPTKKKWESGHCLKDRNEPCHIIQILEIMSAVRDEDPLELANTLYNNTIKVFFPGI
UniProt Q15561, whole entry, looked up: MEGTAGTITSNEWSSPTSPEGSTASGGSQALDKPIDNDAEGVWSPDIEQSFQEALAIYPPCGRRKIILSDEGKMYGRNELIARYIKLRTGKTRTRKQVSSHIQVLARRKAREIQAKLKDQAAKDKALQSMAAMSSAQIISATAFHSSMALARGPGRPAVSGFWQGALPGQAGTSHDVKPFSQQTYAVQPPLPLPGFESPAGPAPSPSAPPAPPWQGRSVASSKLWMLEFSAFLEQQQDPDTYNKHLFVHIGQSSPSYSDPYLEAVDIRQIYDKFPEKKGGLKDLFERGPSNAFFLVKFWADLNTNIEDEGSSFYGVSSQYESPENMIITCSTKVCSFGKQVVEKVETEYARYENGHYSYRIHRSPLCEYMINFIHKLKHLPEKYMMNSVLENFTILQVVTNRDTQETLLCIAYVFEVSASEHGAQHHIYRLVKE
UniProt Q15170: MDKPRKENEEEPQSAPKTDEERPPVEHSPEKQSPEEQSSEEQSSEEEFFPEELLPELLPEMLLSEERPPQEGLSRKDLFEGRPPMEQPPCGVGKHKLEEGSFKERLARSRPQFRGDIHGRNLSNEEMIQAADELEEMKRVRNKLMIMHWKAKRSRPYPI
UniProt Q92609: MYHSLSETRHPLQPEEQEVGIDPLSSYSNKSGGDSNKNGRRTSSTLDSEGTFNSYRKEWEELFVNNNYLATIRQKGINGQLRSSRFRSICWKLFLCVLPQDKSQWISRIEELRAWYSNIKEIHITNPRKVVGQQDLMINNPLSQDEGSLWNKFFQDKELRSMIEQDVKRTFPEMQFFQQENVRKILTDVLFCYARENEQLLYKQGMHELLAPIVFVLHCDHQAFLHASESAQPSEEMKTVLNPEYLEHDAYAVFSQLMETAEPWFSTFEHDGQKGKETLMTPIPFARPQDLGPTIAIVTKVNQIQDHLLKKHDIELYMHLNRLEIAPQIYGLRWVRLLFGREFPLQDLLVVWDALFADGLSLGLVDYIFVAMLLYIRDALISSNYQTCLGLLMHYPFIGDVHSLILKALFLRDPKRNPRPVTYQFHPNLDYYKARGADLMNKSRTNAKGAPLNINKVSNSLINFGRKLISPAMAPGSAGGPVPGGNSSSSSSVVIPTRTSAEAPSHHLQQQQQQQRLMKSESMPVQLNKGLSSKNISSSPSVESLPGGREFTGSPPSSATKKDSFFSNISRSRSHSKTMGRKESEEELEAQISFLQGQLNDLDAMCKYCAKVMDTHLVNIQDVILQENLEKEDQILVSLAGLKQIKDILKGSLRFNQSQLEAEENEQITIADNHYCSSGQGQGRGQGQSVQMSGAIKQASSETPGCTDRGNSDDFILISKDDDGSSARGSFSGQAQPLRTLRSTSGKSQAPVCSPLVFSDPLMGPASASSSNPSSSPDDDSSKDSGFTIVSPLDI
UniProt Q9HA65: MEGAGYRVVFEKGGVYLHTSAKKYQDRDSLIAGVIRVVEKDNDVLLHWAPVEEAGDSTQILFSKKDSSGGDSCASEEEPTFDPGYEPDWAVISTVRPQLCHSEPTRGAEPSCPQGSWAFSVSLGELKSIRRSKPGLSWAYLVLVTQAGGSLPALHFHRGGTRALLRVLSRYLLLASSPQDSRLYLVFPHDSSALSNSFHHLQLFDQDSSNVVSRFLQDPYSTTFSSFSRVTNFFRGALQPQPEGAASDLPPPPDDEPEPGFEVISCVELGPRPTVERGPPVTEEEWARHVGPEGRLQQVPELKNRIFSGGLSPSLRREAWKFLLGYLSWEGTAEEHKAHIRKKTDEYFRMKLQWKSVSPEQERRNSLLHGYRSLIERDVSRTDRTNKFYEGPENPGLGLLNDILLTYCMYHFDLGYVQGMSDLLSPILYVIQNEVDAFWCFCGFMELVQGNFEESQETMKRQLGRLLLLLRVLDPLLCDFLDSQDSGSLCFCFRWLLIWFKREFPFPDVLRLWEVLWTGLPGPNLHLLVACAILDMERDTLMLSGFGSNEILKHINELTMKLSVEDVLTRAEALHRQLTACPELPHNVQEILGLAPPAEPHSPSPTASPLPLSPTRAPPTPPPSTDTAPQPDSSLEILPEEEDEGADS

Each target was assayed with C1=CC=C(C=C1)[C@H](COC2=CC3=C(C=C2)NC(=O)N3)NC(=O)C4=CC=CN(C4=O)CC5=CC(=C(C=C5)F)F (assay: log2 fold change, soluble protein after heating vs DMSO (PISA); higher = thermal stabilisation; K562 lysate, 10 uM; active = over 0.2 and 3.5 SD of the protein, either way, in both replicates (recomputed)).
How it was run: (§1)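 Pellets of K562 cells were dounce-homogenised in PBS pH 7.4 with 1 mM MgCl2, and the crude extract was held at 1 mg/mL protein for a 30 min treatment with 10 μM compound. Aliquots were heated for 3 min over 48°C-58°C and pooled before NP-40 was added to 0.5% at 4°C. The supernatant from 21,000xg for 90 min was quantified by TMTpro 16plex LC-MS/MS with channel sums equalised. Values are reported from duplicates as log-two fold change in thermal stability relative to solvent controls.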
TARDBP (UniProt Q13148) was tested, and the log2 fold change was inactive: -0.094. In the case of TAX1BP1 (UniProt Q86VP1), the log2 fold change is reported as inactive: -0.011. With TESC (UniProt Q96BS2) the log2 fold change was inactive: 0.034. In the case of TAF9 (UniProt Q16594), the log2 fold change is reported as inactive: 0.04. For TCEA1 (UniProt P23193), the log2 fold change was inactive: 0.048. For TBKBP1 (UniProt A7MCY6), the log2 fold change was inactive: -0.02. For TAF7 (UniProt Q15545), the log2 fold change was inactive: 0.006. In the case of TEPSIN, A0A1B0GV70, the log2 fold change is reported as inactive: -0.009. TDP1 (UniProt Q9NUW8) was tested, and the log2 fold change was inactive: -0.008. For TCEANC2 (UniProt Q96MN5), the log2 fold change was inactive: -0.041. With TBL2 (UniProt Q9Y4P3) the log2 fold change was inactive: 0.01. With TEAD1 (UniProt P28347) the log2 fold change was inactive: -0.088. With TBCEL (UniProt Q5QJ74) the log2 fold change was inactive: -0.23. With TBC1D8B (UniProt Q0IIM8) the log2 fold change was inactive: -0.086. TFDP2 (UniProt Q14188) was tested, and the log2 fold change was inactive: -0.101. For TCP11L1 (UniProt Q9NUJ3), the log2 fold change was inactive: -0.023. With TENT4B isoform 5 (UniProt Q8NDF8) the log2 fold change was inactive: 0.008. In the case of TAX1BP1 isoform 2 (UniProt Q86VP1), the log2 fold change is reported as inactive: -0.142. With TBCA (UniProt O75347) the log2 fold change was inactive: 0.021. In the case of TERF2IP (UniProt Q9NYB0), the log2 fold change is reported as inactive: 0.023. In the case of TAPBP isoform 3 (UniProt O15533), the log2 fold change is reported as inactive: -0.299. In the case of TATDN1 isoform 2 (UniProt Q6P1N9), the log2 fold change is reported as inactive: -0.09. TBL3 (UniProt Q12788) was tested, and the log2 fold change was inactive: 0.024. For TEX10 (UniProt Q9NXF1), the log2 fold change was inactive: -0.046. For TEAD4 (UniProt Q15561), the log2 fold change was inactive: -0.076. With TCEAL1 isoform 2 (UniProt Q15170) the log2 fold change was inactive: 0.309. With TATDN1 (UniProt Q6P1N9) the log2 fold change was inactive: 0.059. With TBC1D5 isoform 2 (UniProt Q92609) the log2 fold change was inactive: -0.025. For TBC1D2B (UniProt Q9UPU7), the log2 fold change was inactive: -0.024. For TBC1D17 (UniProt Q9HA65), the log2 fold change was inactive: -0.002. For TBCB (UniProt Q99426), the log2 fold change was inactive: 0.011. For TARBP1 (UniProt Q13395), the log2 fold change was inactive: -0.108. For TBC1D20 isoform 3 (UniProt Q96BZ9), the log2 fold change was inactive: -0.08. With TF (UniProt P02787) the log2 fold change was inactive: -0.067. TANGO6 (UniProt Q9C0B7) was tested, and the log2 fold change was inactive: 0.05. With TBC1D22A (UniProt Q8WUA7) the log2 fold change was inactive: 0.007. TEX2 isoform 2 (UniProt Q8IWB9) was tested, and the log2 fold change was inactive: -0.042. In the case of TBC1D9B isoform 2 (UniProt Q66K14), the log2 fold change is reported as inactive: 0.004. TAOK2 (UniProt Q9UL54) was tested, and the log2 fold change was inactive: -0.033.

These targets were tested with CC1=C(SC2=C1C(=N[C@H](C3=NN=C(N32)C)CC(=O)N)C4=CC=C(C=C4)Cl)C in the same assay as above.
How it was run: as §1
TARDBP (UniProt Q13148) was tested, and the log2 fold change was inactive: -0.012. In the case of TAX1BP1 (UniProt Q86VP1), the log2 fold change is reported as inactive: 0.005. With TESC (UniProt Q96BS2) the log2 fold change was inactive: -0.131. For TAF9 (UniProt Q16594), the log2 fold change was inactive: -0.004. TCEA1 (UniProt P23193) was tested, and the log2 fold change was inactive: -0.009. TBKBP1 (UniProt A7MCY6) was tested, and the log2 fold change was inactive: -0.07. For TAF7 (UniProt Q15545), the log2 fold change was inactive: 0.02. With TEPSIN, A0A1B0GV70 the log2 fold change was inactive: 0.04. In the case of TDP1 (UniProt Q9NUW8), the log2 fold change is reported as inactive: 0.018. With TCEANC2 (UniProt Q96MN5) the log2 fold change was inactive: -0.022. For TBL2 (UniProt Q9Y4P3), the log2 fold change was inactive: 0.057. TEAD1 (UniProt P28347) was tested, and the log2 fold change was inactive: -0.039. TBCEL (UniProt Q5QJ74) was tested, and the log2 fold change was inactive: -0.052. With TBC1D8B (UniProt Q0IIM8) the log2 fold change was inactive: -0.078. For TFDP2 (UniProt Q14188), the log2 fold change was inactive: -0.179. TCP11L1 (UniProt Q9NUJ3) was tested, and the log2 fold change was inactive: -0.031. With TENT4B isoform 5 (UniProt Q8NDF8) the log2 fold change was inactive: 0.129. With TAX1BP1 isoform 2 (UniProt Q86VP1) the log2 fold change was inactive: -0.026. TBCA (UniProt O75347) was tested, and the log2 fold change was inactive: -0.03. With TERF2IP (UniProt Q9NYB0) the log2 fold change was inactive: -0.006. TAPBP isoform 3 (UniProt O15533) was tested, and the log2 fold change was inactive: -0.174. TATDN1 isoform 2 (UniProt Q6P1N9) was tested, and the log2 fold change was inactive: 0.072. With TBL3 (UniProt Q12788) the log2 fold change was inactive: 0.003. With TEX10 (UniProt Q9NXF1) the log2 fold change was inactive: 0.066. In the case of TEAD4 (UniProt Q15561), the log2 fold change is reported as inactive: 0.133. For TCEAL1 isoform 2 (UniProt Q15170), the log2 fold change was inactive: -0.12. In the case of TATDN1 (UniProt Q6P1N9), the log2 fold change is reported as inactive: -0.013. For TBC1D5 isoform 2 (UniProt Q92609), the log2 fold change was inactive: 0.024. TBC1D2B (UniProt Q9UPU7) was tested, and the log2 fold change was inactive: 0.139. TBC1D17 (UniProt Q9HA65) was tested, and the log2 fold change was inactive: 0.012. With TBCB (UniProt Q99426) the log2 fold change was inactive: -0.043. In the case of TARBP1 (UniProt Q13395), the log2 fold change is reported as inactive: -0.025. With TBC1D20 isoform 3 (UniProt Q96BZ9) the log2 fold change was inactive: -0.07. With TF (UniProt P02787) the log2 fold change was inactive: -0.009. With TANGO6 (UniProt Q9C0B7) the log2 fold change was inactive: -0.021. In the case of TBC1D22A (UniProt Q8WUA7), the log2 fold change is reported as inactive: 0.007. For TEX2 isoform 2 (UniProt Q8IWB9), the log2 fold change was inactive: 0.043. TBC1D9B isoform 2 (UniProt Q66K14) was tested, and the log2 fold change was inactive: 0.026. With TAOK2 (UniProt Q9UL54) the log2 fold change was inactive: 0.118.
